Experimental data from patent US8492346B2, “Methods of use of epsilon inhibitor compounds for the attenuation of pain” (KAI Pharmaceuticals, Inc., priority 2007, dated 2013).
Not every detail of the peptide structures is certain; ends, links or a residue may be inferred.

Legend:
Type in all cases: in vivo, rat
[1] = test system: carrageenan/PGE2-induced hyperalgesia; experiment: Carrageenan followed by PGE2 chronic inflammatory pain model; details: intradermal administration, FIG. 9
[2] = test system: L5 nerve transection-induced allodynia and hyperalgesia; experiment: Chung (L5 spinal nerve transection) neuropathic pain model
From the text: The Chung (L5 nerve transection) is a well-known model for chronic (neuropathic) pain. […]
The activity of KAI-1678 has been evaluated in the L5 transection model or modified Chung model, is a mononeuropathic pain model in which the L5 spinal nerve is surgically transected, resulting in rapid development of sustained pain. The activity of KAI-1678 in this model is described below.
The rat L5 spinal nerve transection model has been used to evaluate the response to modulators of neuropathic pain. In the studies described below surgical transaction of the L5 spinal nerve was used to elicit mechanical allodynia, mechanical hyperalgesia and thermal hyperalgesia that characterize neuropathic pain. In this model, the neuropathic effects develop within a day and are reported to last for 1-2 months.
Mechanical allodynia and mechanical hyperalgesia are measured using calibrated von Frey filaments to elicit a flexion withdrawal response (paw withdrawal response) by pressing them against the plantar surface of the hindpaw on the same side as the nerve transection. The 2 g, 6 g and 10 g von Frey filaments are used to assess allodynia since these stimuli are normally innocuous to naïve animals. The 15 g, 26 g and 60 g filaments are used to assess algesia (response to noxious stimulus) since these stimuli elicit paw withdrawals in naïve animals and are considered to represent painful stimuli.
The existence of the disease state following nerve transection is confirmed based on tests performed with the 2 g and the 10 g filaments.
Once the disease state is confirmed, evaluation of the extent of mechanical allodynia or hyperalgesia is determined by observing the number of paw withdrawals in responsse to 5 tests with each of the von Frey filaments. Results are typically expressed either as the total number of paw withdrawals for the allodynic filaments (2 g, 6 g and 10 g for a total of 15 tests) or the algesic filaments (15 g, 26 g and 60 g for a total of 15 tests), or as the lowest filament to which the animals in a group have an average positive response defined as ≧3 withdrawals out of 5 tests with a particular filament. […]
Rats given an L5 spinal nerve transection were treated with a bolus subcutaneous dose of KAI-1678 ranging from 0.00025-0.25 mcg/rat (˜0.001-1 mcg/kg) on day 7 post-transection. The degree of mechanical allodynia and hyperalgesia was evaluated based on the number of paw withdrawals (out of 30) in response to 6 different von Frey filaments before and up to 3 hours after administration of the compound.

[3] = test system: formalin-induced acute pain; experiment: Formalin-induced pain test (acute pain); details: intrathecal, 15 minutes prior to intraplantar formalin, FIG. 7
[4] = test system: carrageenan-induced mechanical hyperalgesia; experiment: Carrageenan inflammatory pain model, Randall-Selitto paw-withdrawal test; details: subcutaneous bolus 1 hour after intraplantar carrageenan, FIG. 10
Procedure: (§1) The nociceptive flexior reflex was quantified on lightly restrained rats by using a Basile Analgesymeter (Randall-Selitto test). Inflammatory hyperlagesia was induced by injection of Carr (1%, 5 uL, i.d.), which was injected unilaterally to the dorsum of the hindpaw one-hour prior to compound administration. The εPKC inhibitor peptide (εV1-2) was injected via systemic routes.
as §1, with “μL,” for “uL,”, “one-hr” for “one-hour”
The rat carrageenan model has been extensively used to evaluate the response to modulators of inflammatory pain. In the model used for the studies described below, a single 5 microL injection of a 1% solution of carrageenan into the plantar surface of the right hindpaw was used to elicit an inflammatory response resulting in local edema and mechanical hyperalgesia. The mechanical hyperalgesia was quantitated as previously described using measurements of the nociceptive flexion reflex (Randall-Selitto paw-withdrawal test) in response to mechanical painful stimulation at the site of carrageenan injection. […]

Structure (SMILES) | Reversal of painful effects of carrageenan [1] | Mechanical allodynia ([2]; chronic sub-cutaneous delivery) | Duration of efficacy ([2]; intrathecal single bolus) | Initial dose of dose-dependent inhibition of thermal hyperalgesia ([2]; subcutaneous osmotic pump) [pmol/day] | Thermal hyperalgesia ([2]; subcutaneous osmotic pump) | Flinches per minute in formalin test [3] | Paw withdrawal threshold [4]
CC(=O)N[C@@H](CSSC[C@H](N)C(=O)N[C@@H](CCC(=O)O)C(=O)N[C@@H](C)C(=O)N[C@H](C(=O)N[C@@H](CO)C(=O)N[C@@H](CC(C)C)C(=O)N[C@@H](CCCCN)C(=O)N1CCC[C@H]1C(=O)N[C@H](C(=O)O)[C@@H](C)O)C(C)C)C(=O)N[C@@H](Cc1ccc(O)cc1)C(=O)NCC(=O)N[C@@H](CCCNC(=N)N)C(=O)N[C@@H](CCCCN)C(=O)N[C@@H](CCCCN)C(=O)N[C@@H](CCCNC(=N)N)C(=O)N[C@@H](CCCNC(=N)N)C(=O)N[C@@H](CCC(N)=O)C(=O)N[C@@H](CCCNC(=N)N)C(=O)N[C@@H](CCCNC(=N)N)C(=O)N[C@@H](CCCNC(=N)N)C(N)=O [KP-1586, C-E-A-V-S-L-K-P-T] | able to reverse the painful effects of carrageenan | suppressed mechanical allodynia | at least 90 minutes | 10 to 50 | suppressed thermal hyperalgesia | effective to reduce flinches per minute | –
CC(=O)N[C@@H](CCC(=O)O)C(=O)N[C@@H](C)C(=O)N[C@H](C(=O)N[C@@H](CO)C(=O)N[C@@H](CC(C)C)C(=O)N[C@@H](CCCCN)C(=O)N1CCC[C@H]1C(=O)N[C@H](C(=O)NCC(=O)NCC(=O)NCCCC[C@H](NC(=O)CNC(=O)CNC(=O)[C@@H](NC(=O)[C@@H]1CCCN1C(=O)[C@H](CCCCN)NC(=O)[C@H](CC(C)C)NC(=O)[C@H](CO)NC(=O)[C@@H](NC(=O)[C@H](C)NC(=O)[C@H](CCC(=O)O)NC(C)=O)C(C)C)[C@@H](C)O)C(=O)N[C@@H](CSSC[C@H](NC(C)=O)C(=O)N[C@@H](Cc1ccc(O)cc1)C(=O)NCC(=O)N[C@@H](CCCNC(=N)N)C(=O)N[C@@H](CCCCN)C(=O)N[C@@H](CCCCN)C(=O)N[C@@H](CCCNC(=N)N)C(=O)N[C@@H](CCCNC(=N)N)C(=O)N[C@@H](CCC(N)=O)C(=O)N[C@@H](CCCNC(=N)N)C(=O)N[C@@H](CCCNC(=N)N)C(=O)N[C@@H](CCCNC(=N)N)C(N)=O)C(=O)O)[C@@H](C)O)C(C)C [KP-1634, [Ac-E-A-V-S-L-K-P-T-G-G]-K-C] | – | – | – | – | – | – | paw withdrawal thresholds increased markedly
